Assay results published in the supplement of paper PMC10849652.
The list shows a part of the results.

The chains behind the UniProt entries cited, without tags or fusion partners. Where a name states a change or a piece, a line headed by the entry shows the natural chain unless it says otherwise.
UniProt Q99816: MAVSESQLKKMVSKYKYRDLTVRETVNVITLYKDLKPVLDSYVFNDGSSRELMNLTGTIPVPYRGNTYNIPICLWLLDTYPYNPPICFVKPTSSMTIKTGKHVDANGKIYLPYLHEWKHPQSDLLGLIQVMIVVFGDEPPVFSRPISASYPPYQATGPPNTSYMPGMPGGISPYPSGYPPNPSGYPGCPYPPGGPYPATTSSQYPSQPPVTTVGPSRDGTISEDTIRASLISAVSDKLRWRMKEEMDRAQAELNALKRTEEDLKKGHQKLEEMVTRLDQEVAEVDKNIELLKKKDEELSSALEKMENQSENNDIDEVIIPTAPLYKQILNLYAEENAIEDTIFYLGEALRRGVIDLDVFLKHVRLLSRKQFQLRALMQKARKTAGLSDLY
UniProt Q8IZ69: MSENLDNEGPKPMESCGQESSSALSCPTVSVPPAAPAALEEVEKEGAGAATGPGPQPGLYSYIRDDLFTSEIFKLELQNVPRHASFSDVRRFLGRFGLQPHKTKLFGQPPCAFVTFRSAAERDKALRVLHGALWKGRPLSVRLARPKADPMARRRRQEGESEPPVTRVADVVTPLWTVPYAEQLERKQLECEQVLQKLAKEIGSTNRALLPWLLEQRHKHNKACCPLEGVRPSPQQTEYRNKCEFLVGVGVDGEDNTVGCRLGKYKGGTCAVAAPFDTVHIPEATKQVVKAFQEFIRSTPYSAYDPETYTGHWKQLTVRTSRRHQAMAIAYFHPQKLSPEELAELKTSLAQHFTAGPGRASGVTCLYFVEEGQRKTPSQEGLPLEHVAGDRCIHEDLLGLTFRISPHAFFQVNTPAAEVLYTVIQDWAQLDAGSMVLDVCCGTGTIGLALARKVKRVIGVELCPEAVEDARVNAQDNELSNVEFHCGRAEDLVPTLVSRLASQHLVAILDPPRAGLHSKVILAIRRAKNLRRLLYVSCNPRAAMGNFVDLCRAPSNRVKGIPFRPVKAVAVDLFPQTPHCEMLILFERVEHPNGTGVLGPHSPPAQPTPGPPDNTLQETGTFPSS
UniProt Q99598: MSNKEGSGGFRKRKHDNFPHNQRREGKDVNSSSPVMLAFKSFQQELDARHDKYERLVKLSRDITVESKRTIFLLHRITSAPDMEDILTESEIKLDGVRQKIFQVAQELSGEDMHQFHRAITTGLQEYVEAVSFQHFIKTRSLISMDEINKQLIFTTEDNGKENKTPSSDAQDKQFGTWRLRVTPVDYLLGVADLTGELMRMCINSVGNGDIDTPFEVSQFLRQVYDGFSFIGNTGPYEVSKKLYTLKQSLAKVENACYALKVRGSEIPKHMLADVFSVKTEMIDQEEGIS
UniProt Q86TV6: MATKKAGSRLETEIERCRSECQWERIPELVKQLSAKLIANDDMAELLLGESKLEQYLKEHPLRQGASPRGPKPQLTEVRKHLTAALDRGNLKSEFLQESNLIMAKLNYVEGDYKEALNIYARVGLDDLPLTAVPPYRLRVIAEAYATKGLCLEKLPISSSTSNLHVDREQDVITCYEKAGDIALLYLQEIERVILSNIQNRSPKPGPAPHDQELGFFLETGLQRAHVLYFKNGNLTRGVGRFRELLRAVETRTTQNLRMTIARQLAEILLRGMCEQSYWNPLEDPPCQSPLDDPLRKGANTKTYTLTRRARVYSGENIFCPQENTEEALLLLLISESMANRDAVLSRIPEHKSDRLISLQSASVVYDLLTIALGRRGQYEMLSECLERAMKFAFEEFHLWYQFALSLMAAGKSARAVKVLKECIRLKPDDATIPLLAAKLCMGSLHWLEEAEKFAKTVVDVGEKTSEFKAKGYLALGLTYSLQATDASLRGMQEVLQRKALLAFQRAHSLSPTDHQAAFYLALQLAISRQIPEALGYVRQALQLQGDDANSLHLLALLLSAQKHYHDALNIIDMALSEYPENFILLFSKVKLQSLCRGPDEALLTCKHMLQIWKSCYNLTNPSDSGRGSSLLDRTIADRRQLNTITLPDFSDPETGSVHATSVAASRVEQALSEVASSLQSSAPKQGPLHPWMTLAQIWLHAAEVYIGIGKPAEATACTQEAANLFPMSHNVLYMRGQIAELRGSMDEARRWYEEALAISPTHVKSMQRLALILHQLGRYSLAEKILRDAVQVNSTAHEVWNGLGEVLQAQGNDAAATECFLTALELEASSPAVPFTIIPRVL
UniProt P49815: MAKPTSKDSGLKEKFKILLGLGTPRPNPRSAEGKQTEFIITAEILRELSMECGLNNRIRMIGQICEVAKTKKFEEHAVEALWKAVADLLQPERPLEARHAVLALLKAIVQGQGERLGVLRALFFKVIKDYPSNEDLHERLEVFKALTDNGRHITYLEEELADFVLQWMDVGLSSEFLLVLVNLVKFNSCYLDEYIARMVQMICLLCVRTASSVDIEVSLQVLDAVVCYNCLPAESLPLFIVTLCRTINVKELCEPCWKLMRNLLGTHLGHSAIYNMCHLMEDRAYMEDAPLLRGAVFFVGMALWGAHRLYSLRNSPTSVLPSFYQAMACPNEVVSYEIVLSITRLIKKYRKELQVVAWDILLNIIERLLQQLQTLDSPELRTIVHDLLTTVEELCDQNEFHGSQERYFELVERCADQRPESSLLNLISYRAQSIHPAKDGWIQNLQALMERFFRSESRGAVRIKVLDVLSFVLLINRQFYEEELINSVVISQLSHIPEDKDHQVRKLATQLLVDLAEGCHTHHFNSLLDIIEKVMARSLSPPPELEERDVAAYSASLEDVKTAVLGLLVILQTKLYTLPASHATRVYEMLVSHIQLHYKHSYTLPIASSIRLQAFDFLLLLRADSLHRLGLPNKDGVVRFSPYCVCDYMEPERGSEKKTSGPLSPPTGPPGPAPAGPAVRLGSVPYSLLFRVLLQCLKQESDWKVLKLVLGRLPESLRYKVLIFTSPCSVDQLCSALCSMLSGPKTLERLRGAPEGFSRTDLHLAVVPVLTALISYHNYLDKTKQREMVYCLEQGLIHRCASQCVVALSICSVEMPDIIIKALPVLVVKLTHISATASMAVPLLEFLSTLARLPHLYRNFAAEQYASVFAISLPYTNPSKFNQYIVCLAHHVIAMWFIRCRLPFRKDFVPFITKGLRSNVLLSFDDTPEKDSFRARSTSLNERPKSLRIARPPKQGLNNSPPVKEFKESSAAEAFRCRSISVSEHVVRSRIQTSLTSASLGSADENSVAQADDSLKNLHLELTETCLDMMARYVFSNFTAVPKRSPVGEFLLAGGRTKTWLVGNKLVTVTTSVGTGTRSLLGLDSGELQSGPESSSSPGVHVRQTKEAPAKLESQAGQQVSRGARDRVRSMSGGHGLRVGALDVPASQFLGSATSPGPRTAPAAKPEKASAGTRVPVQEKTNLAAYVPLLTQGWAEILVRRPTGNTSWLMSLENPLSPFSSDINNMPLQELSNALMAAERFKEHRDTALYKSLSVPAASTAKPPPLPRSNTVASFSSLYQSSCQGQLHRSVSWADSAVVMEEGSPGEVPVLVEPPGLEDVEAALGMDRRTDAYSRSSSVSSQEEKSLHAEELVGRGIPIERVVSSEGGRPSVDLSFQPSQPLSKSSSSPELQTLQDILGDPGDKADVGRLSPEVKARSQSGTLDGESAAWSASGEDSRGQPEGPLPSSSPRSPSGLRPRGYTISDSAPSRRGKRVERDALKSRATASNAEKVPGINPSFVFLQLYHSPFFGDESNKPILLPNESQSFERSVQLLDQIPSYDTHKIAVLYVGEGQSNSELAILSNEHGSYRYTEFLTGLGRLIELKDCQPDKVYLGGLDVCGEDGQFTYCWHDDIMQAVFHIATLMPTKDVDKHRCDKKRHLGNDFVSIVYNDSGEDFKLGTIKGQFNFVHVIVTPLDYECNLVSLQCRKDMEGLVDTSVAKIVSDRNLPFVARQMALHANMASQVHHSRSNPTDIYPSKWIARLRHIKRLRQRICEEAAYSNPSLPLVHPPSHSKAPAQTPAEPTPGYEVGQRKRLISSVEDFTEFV
UniProt Q6PJ69: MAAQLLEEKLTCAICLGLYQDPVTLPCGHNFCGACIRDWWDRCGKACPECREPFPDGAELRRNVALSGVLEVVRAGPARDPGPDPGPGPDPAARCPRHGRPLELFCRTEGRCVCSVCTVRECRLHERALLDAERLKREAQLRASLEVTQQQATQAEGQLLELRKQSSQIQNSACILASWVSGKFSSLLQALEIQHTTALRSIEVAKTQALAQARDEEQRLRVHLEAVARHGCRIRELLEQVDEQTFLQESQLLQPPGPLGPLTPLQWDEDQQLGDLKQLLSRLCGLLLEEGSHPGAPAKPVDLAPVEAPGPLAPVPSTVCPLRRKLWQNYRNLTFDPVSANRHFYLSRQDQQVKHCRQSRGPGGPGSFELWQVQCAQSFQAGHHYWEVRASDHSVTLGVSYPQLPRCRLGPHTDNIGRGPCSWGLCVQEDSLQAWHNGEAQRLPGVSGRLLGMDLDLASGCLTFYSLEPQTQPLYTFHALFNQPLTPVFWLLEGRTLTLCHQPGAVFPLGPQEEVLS
UniProt Q86SZ2: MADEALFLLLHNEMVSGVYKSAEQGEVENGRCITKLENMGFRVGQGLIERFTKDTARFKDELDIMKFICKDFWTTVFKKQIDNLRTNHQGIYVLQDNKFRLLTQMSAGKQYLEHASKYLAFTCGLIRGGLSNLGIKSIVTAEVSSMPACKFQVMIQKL
UniProt Q9Y5R8, whole entry, looked up: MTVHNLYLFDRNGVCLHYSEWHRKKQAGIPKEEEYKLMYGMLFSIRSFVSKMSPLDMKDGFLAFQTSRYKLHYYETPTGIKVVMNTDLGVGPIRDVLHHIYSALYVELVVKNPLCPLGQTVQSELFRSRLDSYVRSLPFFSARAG
UniProt Q8WWH5: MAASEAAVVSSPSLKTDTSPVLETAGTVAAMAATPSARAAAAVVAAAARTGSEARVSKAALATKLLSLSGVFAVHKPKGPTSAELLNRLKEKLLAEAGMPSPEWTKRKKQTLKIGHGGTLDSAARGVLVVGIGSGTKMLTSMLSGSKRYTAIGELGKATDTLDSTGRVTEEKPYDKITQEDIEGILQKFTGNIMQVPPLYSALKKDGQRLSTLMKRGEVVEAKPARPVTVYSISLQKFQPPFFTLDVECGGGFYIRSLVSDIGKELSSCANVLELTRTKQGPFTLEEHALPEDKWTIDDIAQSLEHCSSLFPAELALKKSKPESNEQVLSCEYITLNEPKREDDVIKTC
UniProt O43617, whole entry, looked up: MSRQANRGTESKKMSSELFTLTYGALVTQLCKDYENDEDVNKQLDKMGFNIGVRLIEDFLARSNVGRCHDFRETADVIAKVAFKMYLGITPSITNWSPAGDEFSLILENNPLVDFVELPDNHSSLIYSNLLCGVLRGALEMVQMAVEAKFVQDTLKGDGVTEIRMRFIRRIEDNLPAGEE
UniProt P48553, whole entry, looked up: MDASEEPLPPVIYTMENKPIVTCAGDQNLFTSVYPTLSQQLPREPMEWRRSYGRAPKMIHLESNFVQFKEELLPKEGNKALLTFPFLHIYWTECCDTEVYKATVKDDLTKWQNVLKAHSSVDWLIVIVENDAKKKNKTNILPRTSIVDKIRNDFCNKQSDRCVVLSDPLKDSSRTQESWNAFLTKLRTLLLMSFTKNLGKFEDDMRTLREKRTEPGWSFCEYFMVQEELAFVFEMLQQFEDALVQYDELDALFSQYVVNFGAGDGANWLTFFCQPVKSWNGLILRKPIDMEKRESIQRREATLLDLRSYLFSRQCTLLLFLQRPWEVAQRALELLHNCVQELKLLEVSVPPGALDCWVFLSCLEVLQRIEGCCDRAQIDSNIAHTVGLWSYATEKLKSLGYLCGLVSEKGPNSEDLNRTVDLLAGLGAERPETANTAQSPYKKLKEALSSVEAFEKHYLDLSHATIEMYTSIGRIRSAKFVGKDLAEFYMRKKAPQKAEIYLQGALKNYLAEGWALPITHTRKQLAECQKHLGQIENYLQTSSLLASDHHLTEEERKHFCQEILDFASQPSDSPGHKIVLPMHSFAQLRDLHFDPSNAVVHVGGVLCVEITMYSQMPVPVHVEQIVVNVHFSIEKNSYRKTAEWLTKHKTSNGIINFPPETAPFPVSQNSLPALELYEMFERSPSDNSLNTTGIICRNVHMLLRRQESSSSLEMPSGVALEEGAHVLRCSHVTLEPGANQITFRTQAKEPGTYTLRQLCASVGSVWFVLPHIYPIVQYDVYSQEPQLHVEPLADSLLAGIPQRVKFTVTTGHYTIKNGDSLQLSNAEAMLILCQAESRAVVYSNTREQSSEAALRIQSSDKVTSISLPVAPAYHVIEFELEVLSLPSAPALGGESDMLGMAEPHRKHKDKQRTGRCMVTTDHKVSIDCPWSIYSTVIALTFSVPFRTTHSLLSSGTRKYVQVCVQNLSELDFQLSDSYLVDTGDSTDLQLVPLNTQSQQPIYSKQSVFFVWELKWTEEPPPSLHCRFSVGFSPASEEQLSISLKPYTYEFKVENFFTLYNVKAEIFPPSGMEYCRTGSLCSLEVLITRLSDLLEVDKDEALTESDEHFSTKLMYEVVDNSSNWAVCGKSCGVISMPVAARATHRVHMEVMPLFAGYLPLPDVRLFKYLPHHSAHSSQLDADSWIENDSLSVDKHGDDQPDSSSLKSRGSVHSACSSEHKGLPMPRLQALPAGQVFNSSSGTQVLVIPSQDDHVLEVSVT

Key:
Assay in all cases: log2 fold change, soluble protein after heating vs DMSO (PISA); higher = thermal stabilisation; K562 lysate, 10 uM; active = over 0.2 and 3.5 SD of the protein, either way, in both replicates (recomputed)
[1] = compound: CCCS(=O)(=O)Nc1ccc(F)c(C(=O)c2c[nH]c3ncc(-c4ccc(Cl)cc4)cc23)c1F [vemurafenib]
Procedure, shortened: (§1)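 Log-two fold change in thermal stability relative to solvent controls is reported from duplicates. For each sample, crude K562 extract from dounce-homogenised pellets in PBS pH 7.4 with 1 mM MgCl2, at 1 mg/mL protein, was treated with 10 μM compound for 30 min. Aliquots heated for 3 min across 48°C-58°C were pooled, brought to 0.5% NP-40 at 4°C and cleared at 21,000xg for 90 min. The supernatant was quantified by TMTpro 16plex LC-MS/MS with channel sums equalised.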

[2] = compound: CCCS(=O)(=O)Nc1ccc(F)c(C(=O)c2c[nH]c3ncc(Cl)cc23)c1F
Procedure, shortened: as §1

[3] = compound: CCN(CCCOc1ccc2c(Nc3cc(CC(=O)Nc4cccc(F)c4)[nH]n3)ncnc2c1)CCOP(=O)(O)O [barasertib]
Procedure, shortened: as §1

[4] = compound: CC[C@@H]1C(=O)N(C)c2cnc(Nc3ccc(C(=O)NC4CCN(C)CC4)cc3OC)nc2N1C1CCCC1
Procedure, shortened: as §1

[5] = compound: CC[C@@H]1C(=O)N(C)c2cnc(Nc3ccc(C(=O)N[C@H]4CC[C@H](N5CCN(CC6CC6)CC5)CC4)cc3OC)nc2N1C(C)C [volasertib]
Procedure, shortened: as §1

[6] = compound: CCn1c(C(=O)N(C2CC2)C2CC2)cc2c3c(ncn3C)c(Nc3cc(C)n(C)n3)nc21
Procedure, shortened: as §1

[7] = compound: CCn1cc(-c2ccnc3[nH]c(-c4cccc(CN(C)C)c4)cc23)c(-c2ccc(NC(=O)N(C)C)cc2)n1
Procedure, shortened: as §1

[8] = compound: CN1CCC(CNc2ccc3ncc(-c4cccc(OC(F)(F)F)c4)n3n2)CC1
Procedure, shortened: as §1

[9] = compound: CN1CCN(CCOc2cc(OC3CCOCC3)c3c(Nc4c(Cl)ccc5c4OCO5)ncnc3c2)CC1 [saracatinib]
Procedure, shortened: as §1

[10] = compound: CN1CCN(c2nc(C3=C(c4c[nH]c5ccccc45)C(=O)NC3=O)c3ccccc3n2)CC1 [sotrastaurin]
Procedure, shortened: as §1

Measured: log2 fold change

TTI1 (UniProt O43156)
inactive: [1] 0.006 | [2] -0.012 | [3] 0.055 | [4] -0.093 | [5] -0.026 | [6] 0.006 | [7] -0.074 | [8] 0.019 | [9] -0.003 | [10] 0.006

TSG101 (UniProt Q99816)
inactive: [1] 0.008 | [2] -0.006 | [3] 0.011 | [4] 0.023 | [5] 0.001 | [6] 0 | [7] -0.253 | [8] 0.076 | [9] -0.008 | [10] -0.012

TRMT2A (UniProt Q8IZ69)
inactive: [1] -0.028 | [2] 0.004 | [3] 0.016 | [4] -0.019 | [5] -0.045 | [6] 0.005 | [7] -0.016 | [8] 0.009 | [9] -0.007 | [10] 0.002

TSNAX (UniProt Q99598)
inactive: [1] 0.005 | [2] -0.004 | [3] -0.024 | [4] 0.021 | [5] 0.009 | [6] -0.036 | [7] -0.023 | [8] 0.037 | [9] 0.027 | [10] 0.002

TTK (UniProt P33981)
inactive: [1] -0.009 | [2] 0.02 | [3] 0.06 | [4] 0.089 | [5] -0.026 | [6] -0.048 | [7] -0.018 | [8] 0.01 | [9] -0.037 | [10] 0.072

TRMT6 (UniProt Q9UJA5)
inactive: [1] -0.006 | [2] 0.011 | [3] -0.024 | [4] 0.007 | [5] 0.001 | [6] 0.004 | [7] -0.033 | [8] 0.059 | [9] 0.009 | [10] -0.034

TSEN34 (UniProt Q9BSV6)
inactive: [1] -0.044 | [2] -0.007 | [3] 0.053 | [4] -0.015 | [5] -0.035 | [6] 0.043 | [7] -0.012 | [8] -0.016 | [9] -0.003 | [10] -0.017

TRMT1L (UniProt Q7Z2T5)
inactive: [1] 0.021 | [2] 0.02 | [3] 0.025 | [4] -0.067 | [5] -0.018 | [6] 0.013 | [7] -0.084 | [8] 0.082 | [9] 0.023 | [10] 0.037

TTC7B isoform 2 (UniProt Q86TV6)
inactive: [1] -0.014 | [2] 0.04 | [3] 0.08 | [4] 0.167 | [5] -0.043 | [6] 0.035 | [7] 0.166 | [8] 0.165 | [9] 0.014 | [10] 0.034

TRAF6 (UniProt Q9Y4K3)
inactive: [1] 0.009 | [2] -0.006 | [3] -0.023 | [4] 0.016 | [5] 0.027 | [6] -0.007 | [7] 0.117 | [8] -0.045 | [9] -0.013 | [10] -0.018

TSC2 isoform 4 (UniProt P49815)
inactive: [1] -0.033 | [2] 0.048 | [3] -0.004 | [4] -0.004 | [5] -0.114 | [6] -0.025 | [7] 0.07 | [8] -0.012 | [9] 0.061 | [10] 0.005

TRMU (UniProt O75648)
inactive: [1] 0.032 | [2] -0.009 | [3] 0.059 | [4] 0.024 | [5] -0.037 | [6] -0.023 | [7] 0.13 | [8] 0.046 | [9] 0.036 | [10] 0.034

TRIM5 (UniProt Q9C035)
inactive: [1] 0.03 | [2] 0.083 | [3] 0.048 | [4] -0.063 | [5] 0.018 | [6] 0.007 | [7] -0.017 | [8] -0.023 | [9] 0.006 | [10] 0.023

TRIM65 (UniProt Q6PJ69)
inactive: [1] 0.025 | [2] 0.085 | [3] 0.013 | [4] 0.026 | [5] -0.076 | [6] 0 | [7] -0.056 | [8] 0.008 | [9] -0.022 | [10] 0.022

TRIM44 (UniProt Q96DX7)
inactive: [1] -0.085 | [2] 0.095 | [3] 0.066 | [4] -0.075 | [5] -0.014 | [6] 0.003 | [7] 0.146 | [8] -0.031 | [9] 0.023 | [10] 0.044

TRIP4 (UniProt Q15650)
inactive: [1] 0.097 | [2] 0.058 | [3] 0.018 | [4] -0.004 | [5] -0.056 | [6] -0.024 | [7] -0.054 | [8] 0.013 | [9] 0.026 | [10] -0.017

TTC17 (UniProt Q96AE7)
inactive: [1] -0.033 | [2] -0.038 | [3] 0.142 | [4] -0.003 | [5] 0.072 | [6] -0.034 | [7] -0.029 | [8] 0.09 | [9] 0.092 | [10] 0.027

TSPAN14 (UniProt Q8NG11)
inactive: [1] 0.019 | [2] 0.019 | [3] 0.077 | [4] -0.045 | [5] 0.015 | [6] -0.039 | [7] -0.079 | [8] 0.077 | [9] -0.02 | [10] -0.007

6 neighbouring entries already listed, quoted:
TSC2 isoform 4 (UniProt P49815)
inactive: [1] -0.033 | [2] 0.048 | [3] -0.004 | [4] -0.004 | [5] -0.114 | [6] -0.025 | [7] 0.07 | [8] -0.012 | [9] 0.061 | [10] 0.005

TRMU (UniProt O75648)
inactive: [1] 0.032 | [2] -0.009 | [3] 0.059 | [4] 0.024 | [5] -0.037 | [6] -0.023 | [7] 0.13 | [8] 0.046 | [9] 0.036 | [10] 0.034

TRIM5 (UniProt Q9C035)
inactive: [1] 0.03 | [2] 0.083 | [3] 0.048 | [4] -0.063 | [5] 0.018 | [6] 0.007 | [7] -0.017 | [8] -0.023 | [9] 0.006 | [10] 0.023

TRIM65 (UniProt Q6PJ69)
inactive: [1] 0.025 | [2] 0.085 | [3] 0.013 | [4] 0.026 | [5] -0.076 | [6] 0 | [7] -0.056 | [8] 0.008 | [9] -0.022 | [10] 0.022

TRIM44 (UniProt Q96DX7)
inactive: [1] -0.085 | [2] 0.095 | [3] 0.066 | [4] -0.075 | [5] -0.014 | [6] 0.003 | [7] 0.146 | [8] -0.031 | [9] 0.023 | [10] 0.044

TRIP4 (UniProt Q15650)
inactive: [1] 0.097 | [2] 0.058 | [3] 0.018 | [4] -0.004 | [5] -0.056 | [6] -0.024 | [7] -0.054 | [8] 0.013 | [9] 0.026 | [10] -0.017

(list continues)

TTC38 (UniProt Q5R3I4)
inactive: [1] 0.035 | [2] 0.03 | [3] 0.102 | [4] 0.004 | [5] -0.001 | [6] -0.047 | [7] 0.189 | [8] -0.181 | [9] -0.026 | [10] -0.027

TRAPPC6B (UniProt Q86SZ2)
inactive: [1] 0.003 | [2] -0.003 | [3] 0.087 | [4] -0.054 | [5] 0.007 | [6] 0.028 | [7] 0 | [8] 0.015 | [9] -0.006 | [10] -0.028

TRAF3 (UniProt Q13114)
inactive: [1] 0.003 | [2] 0.118 | [3] 0.107 | [4] 0.013 | [5] 0.012 | [6] -0.054 | [7] -0.302 | [8] 0.092 | [9] 0 | [10] 0.168

TRAM1 (UniProt Q15629)
inactive: [1] 0.012 | [2] 0.016 | [3] 0.079 | [4] -0.064 | [5] 0.027 | [6] -0.076 | [7] -0.059 | [8] -0.13 | [9] 0.001 | [10] 0.023

TRAPPC1 (UniProt Q9Y5R8)
inactive: [1] -0.029 | [2] 0.022 | [3] 0.156 | [4] 0.064 | [5] 0.009 | [6] -0.032 | [7] -0.035 | [8] 0.068 | [9] -0.051 | [10] -0.034

TRUB1 (UniProt Q8WWH5)
inactive: [1] -0.029 | [2] 0.002 | [3] 0.029 | [4] -0.015 | [5] 0.008 | [6] 0.076 | [7] -0.084 | [8] 0.082 | [9] 0.022 | [10] -0.001

TRAPPC3 (UniProt O43617)
inactive: [1] 0.005 | [2] -0.02 | [3] 0.1 | [4] -0.046 | [5] 0.042 | [6] 0.071 | [7] -0.025 | [8] -0.001 | [9] -0.019 | [10] 0.036

TSPAN13 (UniProt O95857)
inactive: [1] -0.032 | [2] -0.03 | [3] -0.033 | [4] 0.177 | [5] 0.032 | [6] 0.046 | [7] 0.114 | [8] 0.059 | [9] 0.134 | [10] -0.154

TRIM21 (UniProt P19474)
inactive: [1] -0.024 | [2] 0.03 | [3] 0.065 | [4] -0.164 | [5] -0.116 | [6] 0.514 | [7] 0.25 | [8] -0.027 | [9] -0.05 | [10] -0.025

TSC22D4 (UniProt Q9Y3Q8)
inactive: [1] 0.016 | [2] 0.016 | [3] -0.063 | [4] 0.038 | [5] -0.01 | [6] -0.015 | [7] -0.027 | [8] -0.012 | [9] 0.016 | [10] 0.019

TRAPPC10 (UniProt P48553)
inactive: [1] 0.022 | [2] 0.009 | [3] 0.027 | [4] -0.063 | [5] -0.052 | [6] 0.022 | [7] -0.061 | [8] 0.071 | [9] 0.016 | [10] -0.039

TTC12 isoform 2 (UniProt Q9H892)
inactive: [1] 0.025 | [2] 0.061 | [3] 0.053 | [4] -0.049 | [5] 0.063 | [6] -0.121 | [7] -0.208 | [8] 0.079 | [9] 0.038 | [10] -0.055
